Assay results: patent US20250326862A1, “Antibody or Fragment Thereof Binding Specifically to Mertk, and Anti-Tumor Agent” (Chiome Bioscience Inc., priority 2021, published 2025)
These are yes or no findings as the source states them, for the method shown. Some binding calls cover weakened binding; strength is not graded here.

T1: human MerTK (R&D Systems) (human) (UniProt Q12866)
T1 sequence (looked up): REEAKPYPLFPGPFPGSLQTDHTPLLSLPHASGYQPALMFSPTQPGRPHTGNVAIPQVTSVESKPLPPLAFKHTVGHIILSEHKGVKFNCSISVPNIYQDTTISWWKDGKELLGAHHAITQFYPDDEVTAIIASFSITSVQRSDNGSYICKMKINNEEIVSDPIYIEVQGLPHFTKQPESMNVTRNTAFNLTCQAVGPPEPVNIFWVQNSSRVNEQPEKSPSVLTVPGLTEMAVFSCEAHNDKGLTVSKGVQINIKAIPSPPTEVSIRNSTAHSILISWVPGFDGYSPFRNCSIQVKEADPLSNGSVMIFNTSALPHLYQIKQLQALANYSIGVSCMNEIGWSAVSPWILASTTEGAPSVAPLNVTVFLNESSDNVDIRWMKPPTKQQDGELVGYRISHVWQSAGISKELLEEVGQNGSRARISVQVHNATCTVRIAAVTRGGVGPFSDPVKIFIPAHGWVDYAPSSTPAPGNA


Columns and labels:
[1] = molecular target: T1, human MerTK (R&D Systems) (human); experiment: ELISA for antigen binding activity, human MerTK
[2] = molecular target: T1, human MerTK (R&D Systems) (human); experiment: ELISA for antigen binding activity, human MerTK; chimeric reference antibody
[3] = molecular target: cynomolgus MerTKECD-hFc (cynomolgus monkey); experiment: ELISA, antigen immobilised at 5 ug/ml, HRP-labelled secondary antibody

Binder | binding [1] | other results
hz20A77_hIgG1LALA (antibody, V domains shown) VH: QVQLVQSGAEVKKPGSSVKVSCKASGNTFTSYWMHWVRQAPGQGLEWIGNINPSSGGTNYNEKFKSRVTITVDKSTSTAYMELSSLRSEDTAVYYCARLNYYGFDGFAFWGQGTLVTVSS VL: DIQMTQSPSSLSASVGDRVTITCKASQDINSYLSWFQQKPGKAPKTLIYRANRLVSGVPSRFSGSGSGTDYTLTISSLQPEDFATYYCLQYDEFPFTFGGGTKVEIK | binds | 
hz24A1_hIgG1LALA (antibody, V domains shown) VH: EVQLVESGGGLVQPGGSLRLSCAASGFTFNVYDMHWVRQAPGKGLEWVARIRSKSSNYATNYADSVKDRFTISRDDAKNSLYLQMNSLRAEDTAVYYCVRDGSHYYYALDYWGQGTTVTVSS VL: DIQMTQSPSSLSASVGDRVTITCRASQDINNYLNWYQQKPGKAPKLLIYYSSRLHSGVPSRFSGSGSGTDYTLTISSLQPEDFATYYCQQGKMFPWTFGGGTKVEIK | binds | 
m20A77_hIgG1LALA (antibody, V domains shown) VH: QVQLQQPGTELVKPGASVKLSCRASGNTFTSYWMHWVKQRPGQGLEWIGNINPSSGGTNYNEKFKSKATLTVDKSSSTAYMQLSSLTSEDSAVYYCARLNYYGFDGFAFWGQGTLVTVSA VL: DIKMTQSPSSMYASLGERVTITCKASQDINSYLSWFQQKPGKSPKTLIYRANRLVSGVPSRFSGSGSGQDYSLTISSLEYEDMGIYYCLQYDEFPFTFGSGTKLEIK |  | binding [2]: binds
m20A77_mIgG1 (antibody, V domains shown, CDR-modified variant of 20A77, made recombinantly with mouse IgG1 heavy chain and kappa light chain constant regions) VH: QVQLQQPGTELVKPGASVKLSCRASGNTFTSYWMHWVKQRPGQGLEWIGNINPSSGGTNYNEKFKSKATLTVDKSSSTAYMQLSSLTSEDSAVYYCARLNYYGFDGFAFWGQGTLVTVSA VL: DIKMTQSPSSMYASLGERVTITCKASQDINSYLSWFQQKPGKSPKTLIYRANRLVSGVPSRFSGSGSGQDYSLTISSLEYEDMGIYYCLQYDEFPFTFGSGTKLEIK |  | binding [3]: binds
